This is one part of the list.

In the assay the target is T1, OsSMF1 (Oryza sativa, UniProt Q6ZLB0 1-436).
T1 sequence: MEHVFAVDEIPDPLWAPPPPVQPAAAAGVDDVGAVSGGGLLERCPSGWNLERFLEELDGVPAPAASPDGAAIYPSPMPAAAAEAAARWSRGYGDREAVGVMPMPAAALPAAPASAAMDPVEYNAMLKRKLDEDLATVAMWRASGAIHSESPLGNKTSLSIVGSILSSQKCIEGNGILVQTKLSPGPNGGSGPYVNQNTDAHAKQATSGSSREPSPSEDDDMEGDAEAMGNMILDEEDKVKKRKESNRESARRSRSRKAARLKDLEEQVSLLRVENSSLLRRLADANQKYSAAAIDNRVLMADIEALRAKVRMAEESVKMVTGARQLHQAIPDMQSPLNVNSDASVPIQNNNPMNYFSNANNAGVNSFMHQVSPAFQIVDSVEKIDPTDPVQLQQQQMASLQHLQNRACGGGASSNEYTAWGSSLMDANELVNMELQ
As to the kind of experiment: protein-binding microarray (RPBM); PBS, 2% BSA, 51.3 ng/ul salmon testes DNA, 50 uM zinc acetate, 200 nM TF, 25 C, 1 h; high values mean tight binding. Conditions: protein: recombinant; tags: N-terminal polyhistidine and DsRed monomer fusion (pET32a); chain copies: 2; label: CyDye5-dUTP incorporated in the synthesized complementary strand; 3' TTTTT single-stranded linker to array surface; dsDNA, one strand shown. In short, it runs like this:
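The binding signal is fluorescence intensity per feature, in arbitrary units, read on an Axon 4000B scanner. Polyhistidine- and DsRed-tagged transcription factors (N-terminal fusions) from E. coli BL21-CodonPlus were purified on Ni–NTA and applied at 200 nM for 1 h at 25 °C to a double-stranded, BSA-blocked custom Agilent array in buffer with 50 µM zinc acetate.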
Take “GGCTGCCACGCCCGCGCCGCGCGCTTCGGCGCTGGCGCCGCGGAGTCACCTAGTGCAG”: the binding signal was 3670 fluorescence intensity (a.u.). Regarding “TAATTTAACTTTGATCAAAGTTAAAACGTGTTACTGGACGCGGAGTCACCTAGTGCAG”, the binding signal was 11500 fluorescence intensity (a.u.). The result for “CATACACTATGGGTAGTCGTCATCGGACATTGGGTGCCGGCGGAGTCACCTAGTGCAG” reads 3790 fluorescence intensity (a.u.); that for “GCGCTCGCACCACGTGGCTGGCGTCGCCTGGGCGCCCATCCGGAGTCACCTAGTGCAG”, 10600 fluorescence intensity (a.u.). On to “CCGCGAGTTCTGACGCAACTGATAAGTGATAACCAACCAACGGAGTCACCTAGTGCAG”, for which the binding signal is 3310 fluorescence intensity (a.u.). The result for “ACAAACATTTGCCACTCCGCGCCACGTCACGCTAACTGACCGGAGTCACCTAGTGCAG” reads 13900 fluorescence intensity (a.u.); that for “GAGCAATAGGGAAACACCTCACACCCGATGTTGGGTGTTGCGGAGTCACCTAGTGCAG”, 4320 fluorescence intensity (a.u.). In the case of “ACACGAACGTGACACCGTGTTGTGTCGACCACCACCGTCGCGGAGTCACCTAGTGCAG”, the binding signal was 3600 fluorescence intensity (a.u.). Turning to “ATTCCACCCCGACTTGCTGACCTCGACAGCACCTGACTTCCGGAGTCACCTAGTGCAG”, the binding signal is 3720 fluorescence intensity (a.u.). “CCAGTTTTGTCCCACGTGGCGGCTGGCTCAGCGTGGGACCCGGAGTCACCTAGTGCAG”: the binding signal was 16800 fluorescence intensity (a.u.). As to “AGGTCAAGTTCGAGTTCAGCTTCGCCGAGCAGGCGGCCAACGGAGTCACCTAGTGCAG”, the binding signal was 29300 fluorescence intensity (a.u.). On to “TTTCGCACCCTCCACCTCCCCTATTATAGCGTGTCGGACACGGAGTCACCTAGTGCAG”, for which the binding signal is 4120 fluorescence intensity (a.u.). As for “TTTTCTGTCGATCGGAATTGGTCATCTTTGGTTGGTTCAGCGGAGTCACCTAGTGCAG”, the binding signal was 3580 fluorescence intensity (a.u.).

As to “GAACACTGGCATACATCGCCGATCAGGATGACGTGGGCAACGGAGTCACCTAGTGCAG”, the binding signal is 11500 fluorescence intensity (a.u.). In the case of “ATGGTACGTCGTCCGTATTTAAGTCAGCTTTTAAGTTCGTCGGAGTCACCTAGTGCAG”, the binding signal is 3780 fluorescence intensity (a.u.). For “GGGGTAGTATATATAAAATCCAATTTGTCACGTGTCAACCCGGAGTCACCTAGTGCAG”, the binding signal was 4420 fluorescence intensity (a.u.). With “AGTTCAGATTTGACATATACAGATTCTAGACATTACCAGTCGGAGTCACCTAGTGCAG”, the binding signal was 20400 fluorescence intensity (a.u.). As for “GCCTAATTACTCGTGCCGCTCTCCTCATTATGACGCCACCCGGAGTCACCTAGTGCAG”, the binding signal was 3770 fluorescence intensity (a.u.). In the case of “TAACCGTCTATGCATTCCAGTTGGTTCCGTTCGTCTTTTGCGGAGTCACCTAGTGCAG”, the binding signal is 3160 fluorescence intensity (a.u.). Turning to “TGAAAATCGCATACTAATTAGCTATTAGTCATGAGCTCTTCGGAGTCACCTAGTGCAG”, the binding signal is 3590 fluorescence intensity (a.u.).

“TGGAAAGTGCGTAGTTGATACAGAATCCAGTCAGTTCCCACGGAGTCACCTAGTGCAG”: the binding signal was 4780 fluorescence intensity (a.u.). Consider “GCGGTGACGTCCTCGCGCTCCCCGTCAGCGCCATCCACGTCGGAGTCACCTAGTGCAG”, for which the binding signal is 10000 fluorescence intensity (a.u.). As for “GCGCCTCTGTCCGCCTCCGCCGCTGCCCTCCGCCACCTCGCGGAGTCACCTAGTGCAG”, the binding signal is 3530 fluorescence intensity (a.u.). For the sequence “CTCTATGGCCCCGTCACGTTCTCCGCCTTTTCCTTTCACACGGAGTCACCTAGTGCAG”, the binding signal was 6530 fluorescence intensity (a.u.). For “TAGCAAATGGTGTTGACGATGATAGGCAACATTAGACGCTCGGAGTCACCTAGTGCAG”, the binding signal was 3150 fluorescence intensity (a.u.).

Take “GGTCCCTAAACTTGTACTGCTGTGTCATCCCGGTCCCTAACGGAGTCACCTAGTGCAG”: the binding signal is 5050 fluorescence intensity (a.u.). “CTCTCCTACAATAGGATGGACTATGTGACGTAGCACAATGCGGAGTCACCTAGTGCAG”: the binding signal is 7860 fluorescence intensity (a.u.).

In the case of “TAAGTAACTTAAACATTTGTGATGTGGATTTGGGATGTTACGGAGTCACCTAGTGCAG”, the binding signal was 3190 fluorescence intensity (a.u.).

For “GCTCTCAAGGCTGCTGATCGCTGACAGACCGACGAGCGCGCGGAGTCACCTAGTGCAG”, the binding signal is 17900 fluorescence intensity (a.u.). Regarding “CCACCAAAATATACACACTAGTATTCAAGATTAGTCATCACGGAGTCACCTAGTGCAG”, the binding signal is 4850 fluorescence intensity (a.u.). The figure for “TGCACGACAGTTTTGGTTGACGTGGCGTCTATGTGGCTAACGGAGTCACCTAGTGCAG” is 25400 fluorescence intensity (a.u.).

In the case of “CTGCGATCCGTCCATCGTCTTCCTGTTCCATCGAGGAGTACGGAGTCACCTAGTGCAG”, the binding signal was 3200 fluorescence intensity (a.u.). For “TGCAATCAAAGAAAATGGAATCTAGGTATCTTCATCTACCCGGAGTCACCTAGTGCAG”, the binding signal was 4550 fluorescence intensity (a.u.). As to “ACACACCCCGTGCCACGTCGGCCTCACACCCCTCAGGTTACGGAGTCACCTAGTGCAG”, the binding signal was 22600 fluorescence intensity (a.u.).

As for “AGGAAGGTTATCTTAGTAGGTCATGTTCTTTGGAAACAAACGGAGTCACCTAGTGCAG”, the binding signal was 3800 fluorescence intensity (a.u.). The figure for “GACTGATCTGCCTAGTCGCATGTACACGGCGGATGCCGTACGGAGTCACCTAGTGCAG” is 4020 fluorescence intensity (a.u.); for “TAGTCCATGGGCCACACCGGCGACACCGTCACACCTAATTCGGAGTCACCTAGTGCAG” it is 4150 fluorescence intensity (a.u.); for “TCCACATATAAGTGGTGAGGTGTCACGAATTATGACAATCCGGAGTCACCTAGTGCAG” it is 5010 fluorescence intensity (a.u.).

For the sequence “CGGAGGCGGCGGTGAGCGAACGGCGGGTGCCACGTGCCCACGGAGTCACCTAGTGCAG”, the binding signal was 10300 fluorescence intensity (a.u.). As for “TGCAGCCGCCGACGCGGCGCGCCGACGCGATCTGAAACCCCGGAGTCACCTAGTGCAG”, the binding signal is 3940 fluorescence intensity (a.u.).

For the sequence “GCTCGAGATCCGGTACGTCATTGCTCAGGGGACCTACGGCCGGAGTCACCTAGTGCAG”, the binding signal is 4350 fluorescence intensity (a.u.). The figure for “CAAACCAAGAAGCTGATGCACTGAAGAAGTCCAGACGGCCCGGAGTCACCTAGTGCAG” is 3230 fluorescence intensity (a.u.).

(Values after PMC7819943, “Rice protein-binding microarrays: a tool to detect cis-acting elements near promoter regions in rice”.)
